In experiment [1] the target is T1, S. cerevisiae Wapl (S. cerevisiae) (UniProt Q99359).
T1 sequence: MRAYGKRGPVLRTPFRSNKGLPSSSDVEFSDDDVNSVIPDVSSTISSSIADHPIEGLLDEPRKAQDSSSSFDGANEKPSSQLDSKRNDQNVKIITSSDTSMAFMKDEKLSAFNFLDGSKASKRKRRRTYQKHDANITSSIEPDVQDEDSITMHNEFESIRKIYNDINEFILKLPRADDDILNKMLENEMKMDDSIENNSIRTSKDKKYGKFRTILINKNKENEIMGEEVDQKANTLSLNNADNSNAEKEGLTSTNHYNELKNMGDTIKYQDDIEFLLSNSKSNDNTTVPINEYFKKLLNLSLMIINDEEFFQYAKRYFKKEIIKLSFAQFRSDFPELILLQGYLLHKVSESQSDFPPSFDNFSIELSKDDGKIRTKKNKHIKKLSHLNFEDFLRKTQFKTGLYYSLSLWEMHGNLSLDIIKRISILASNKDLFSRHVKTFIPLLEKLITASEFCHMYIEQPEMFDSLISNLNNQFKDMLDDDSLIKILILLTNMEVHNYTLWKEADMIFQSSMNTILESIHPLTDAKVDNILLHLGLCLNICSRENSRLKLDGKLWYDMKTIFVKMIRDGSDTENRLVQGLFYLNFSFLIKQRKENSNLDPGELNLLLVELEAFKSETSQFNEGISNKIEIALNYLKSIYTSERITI
The experiment can be described thus: SEC; data not shown; gel filtration as for E202K; both purified. (Size exclusion chromatography separates by hydrodynamic size, large species first.)

Experiment [2] has as its target T1, S. cerevisiae Wapl (S. cerevisiae). Briefly: SEC; 15 μM of each pure protein incubated at 4 °C for 2–3 h in 150 μl TAP buffer, Superdex 200 10/300; fractions by SDS–PAGE and Coomassie staining; both purified.

These are yes or no findings as the source states them, for the method shown. Some binding calls cover weakened binding; strength is not graded here.

Our source for the binding values is article PMC4175184, “Structure and function of cohesin’s Scc3/SA regulatory subunit” (Febs Letters, 2014).

B1: S. cerevisiae Scc3 D189E (protein, UniProt P40541 1-1150)
chain: MTAVRRSTRIRTKSQVIEEDYDDEQNTSAQHVESDKITAKTQHEEEEEQDTGESEESSSEDDYEDQDDDDYVDTATAKRKSRKRKPKSASNTSSKRQKKKPTSAQKSAVSHAPAYHRSKKDQDQYLEIAKDFQPTELFDILSTSEDVSIEELLREWLETYSENRDKFLQEFINLLLNCCGSVARVEDHEVHSNESSNETIGEIQLLFQRQKLHEFYLLISKENKKRKNFKMGPLYQNFAEFMTKLLEVANDLQLLYVESDEDDTQIVTGNLVLDLLTWLSSFSVCKIRCFRYISTLTLYLFQDYLTQQAVNLEKNYLAKLSKQLSLEEKKKRPNNKTLEKLESTIAETQGSKVVIDSIIDNIVKLCFVHRYKDVSDLIRSESMLHLSIWIKNYPEYFLKVTFLKYFGWLLSDNSVSVRLQVTKILPHLIIQNHNSKSTDNSAIRQVFERFKTKILEVAIRDVNLDVRIHSIQVLTEASSLGYLDDSEILIISSLMFDEEFDPFKTSSFNKRSKFLSTVAKFLARVIKEKFDEFIKTHEDLPKEVDGLEVGPVVQVGIFIKILNDSLIYHLKDCAEVDSRTKIRMLTQAAEFLSPYISTHLKTICNLLISDTESNELIQKLQNSANNNSDDEDVDDEELDITPLFPIDRNSTILYLNVFHGLCAGANNPKIQTKDSVKEIVLPLFYDLLNAASIESADILCPLLESFITFSLDDWISIGYETELKKITDKTIKAFMDSTIGNSKVDMKYDIFAKFIHHIHHFEKKELQEKFLNQIATLKIHLKKFLQEKMDPNNSRDDYKDLTCSLYELYINKLTILGRDYPIEVDEELLQLFLNNFVSRIPIMFQDFDDSTAQEINFKMLVLLATWNLEKWREIIEKVRDYENSISKDLRSVWKPIAAIIGRLNTLVISLAATNETFENINSLFYLKWSACTSLMDIIVAIKIFELKLPADATTWRYSMSEQFPFYLHDNASKVLLKIFLYLESLFAKQVDVQLERVADEDANLNDLPETGFFENIETEFLLFTVKLKGLMKLNILDERFASRVALNKEKLGPLFKKIVDDTIMENPEPNKKNIQKAKSNQTQREKAPLQPNSERETDHANTENNDPDIPMTIDLEPIEESSQNNSELAPIEEHPTVVDAIDNSDEITQD
Regarding B1, the binding entry in experiment [1] is “binds”.

B2: S. cerevisiae Scc3 R1043L (protein, UniProt P40541 1-1150)
chain: MTAVRRSTRIRTKSQVIEEDYDDEQNTSAQHVESDKITAKTQHEEEEEQDTGESEESSSEDDYEDQDDDDYVDTATAKRKSRKRKPKSASNTSSKRQKKKPTSAQKSAVSHAPAYHRSKKDQDQYLEIAKDFQPTELFDILSTSEDVSIEELLREWLETYSENRDKFLQEFINLLLNCCGSVARVEDHDVHSNESSNETIGEIQLLFQRQKLHEFYLLISKENKKRKNFKMGPLYQNFAEFMTKLLEVANDLQLLYVESDEDDTQIVTGNLVLDLLTWLSSFSVCKIRCFRYISTLTLYLFQDYLTQQAVNLEKNYLAKLSKQLSLEEKKKRPNNKTLEKLESTIAETQGSKVVIDSIIDNIVKLCFVHRYKDVSDLIRSESMLHLSIWIKNYPEYFLKVTFLKYFGWLLSDNSVSVRLQVTKILPHLIIQNHNSKSTDNSAIRQVFERFKTKILEVAIRDVNLDVRIHSIQVLTEASSLGYLDDSEILIISSLMFDEEFDPFKTSSFNKRSKFLSTVAKFLARVIKEKFDEFIKTHEDLPKEVDGLEVGPVVQVGIFIKILNDSLIYHLKDCAEVDSRTKIRMLTQAAEFLSPYISTHLKTICNLLISDTESNELIQKLQNSANNNSDDEDVDDEELDITPLFPIDRNSTILYLNVFHGLCAGANNPKIQTKDSVKEIVLPLFYDLLNAASIESADILCPLLESFITFSLDDWISIGYETELKKITDKTIKAFMDSTIGNSKVDMKYDIFAKFIHHIHHFEKKELQEKFLNQIATLKIHLKKFLQEKMDPNNSRDDYKDLTCSLYELYINKLTILGRDYPIEVDEELLQLFLNNFVSRIPIMFQDFDDSTAQEINFKMLVLLATWNLEKWREIIEKVRDYENSISKDLRSVWKPIAAIIGRLNTLVISLAATNETFENINSLFYLKWSACTSLMDIIVAIKIFELKLPADATTWRYSMSEQFPFYLHDNASKVLLKIFLYLESLFAKQVDVQLERVADEDANLNDLPETGFFENIETEFLLFTVKLKGLMKLNILDERFASLVALNKEKLGPLFKKIVDDTIMENPEPNKKNIQKAKSNQTQREKAPLQPNSERETDHANTENNDPDIPMTIDLEPIEESSQNNSELAPIEEHPTVVDAIDNSDEITQD
On to B2, for which the binding entry in experiment [1] is reported as “binds”.

B3: S. cerevisiae Scc3 R996S (protein, UniProt P40541 1-1150)
chain: MTAVRRSTRIRTKSQVIEEDYDDEQNTSAQHVESDKITAKTQHEEEEEQDTGESEESSSEDDYEDQDDDDYVDTATAKRKSRKRKPKSASNTSSKRQKKKPTSAQKSAVSHAPAYHRSKKDQDQYLEIAKDFQPTELFDILSTSEDVSIEELLREWLETYSENRDKFLQEFINLLLNCCGSVARVEDHDVHSNESSNETIGEIQLLFQRQKLHEFYLLISKENKKRKNFKMGPLYQNFAEFMTKLLEVANDLQLLYVESDEDDTQIVTGNLVLDLLTWLSSFSVCKIRCFRYISTLTLYLFQDYLTQQAVNLEKNYLAKLSKQLSLEEKKKRPNNKTLEKLESTIAETQGSKVVIDSIIDNIVKLCFVHRYKDVSDLIRSESMLHLSIWIKNYPEYFLKVTFLKYFGWLLSDNSVSVRLQVTKILPHLIIQNHNSKSTDNSAIRQVFERFKTKILEVAIRDVNLDVRIHSIQVLTEASSLGYLDDSEILIISSLMFDEEFDPFKTSSFNKRSKFLSTVAKFLARVIKEKFDEFIKTHEDLPKEVDGLEVGPVVQVGIFIKILNDSLIYHLKDCAEVDSRTKIRMLTQAAEFLSPYISTHLKTICNLLISDTESNELIQKLQNSANNNSDDEDVDDEELDITPLFPIDRNSTILYLNVFHGLCAGANNPKIQTKDSVKEIVLPLFYDLLNAASIESADILCPLLESFITFSLDDWISIGYETELKKITDKTIKAFMDSTIGNSKVDMKYDIFAKFIHHIHHFEKKELQEKFLNQIATLKIHLKKFLQEKMDPNNSRDDYKDLTCSLYELYINKLTILGRDYPIEVDEELLQLFLNNFVSRIPIMFQDFDDSTAQEINFKMLVLLATWNLEKWREIIEKVRDYENSISKDLRSVWKPIAAIIGRLNTLVISLAATNETFENINSLFYLKWSACTSLMDIIVAIKIFELKLPADATTWRYSMSEQFPFYLHDNASKVLLKIFLYLESLFAKQVDVQLESVADEDANLNDLPETGFFENIETEFLLFTVKLKGLMKLNILDERFASRVALNKEKLGPLFKKIVDDTIMENPEPNKKNIQKAKSNQTQREKAPLQPNSERETDHANTENNDPDIPMTIDLEPIEESSQNNSELAPIEEHPTVVDAIDNSDEITQD
In the case of B3, in experiment [1], the binding result was “binds”.

B4: S. cerevisiae Scc3, full-length protein (protein, UniProt P40541 1-1150)
chain: MTAVRRSTRIRTKSQVIEEDYDDEQNTSAQHVESDKITAKTQHEEEEEQDTGESEESSSEDDYEDQDDDDYVDTATAKRKSRKRKPKSASNTSSKRQKKKPTSAQKSAVSHAPAYHRSKKDQDQYLEIAKDFQPTELFDILSTSEDVSIEELLREWLETYSENRDKFLQEFINLLLNCCGSVARVEDHDVHSNESSNETIGEIQLLFQRQKLHEFYLLISKENKKRKNFKMGPLYQNFAEFMTKLLEVANDLQLLYVESDEDDTQIVTGNLVLDLLTWLSSFSVCKIRCFRYISTLTLYLFQDYLTQQAVNLEKNYLAKLSKQLSLEEKKKRPNNKTLEKLESTIAETQGSKVVIDSIIDNIVKLCFVHRYKDVSDLIRSESMLHLSIWIKNYPEYFLKVTFLKYFGWLLSDNSVSVRLQVTKILPHLIIQNHNSKSTDNSAIRQVFERFKTKILEVAIRDVNLDVRIHSIQVLTEASSLGYLDDSEILIISSLMFDEEFDPFKTSSFNKRSKFLSTVAKFLARVIKEKFDEFIKTHEDLPKEVDGLEVGPVVQVGIFIKILNDSLIYHLKDCAEVDSRTKIRMLTQAAEFLSPYISTHLKTICNLLISDTESNELIQKLQNSANNNSDDEDVDDEELDITPLFPIDRNSTILYLNVFHGLCAGANNPKIQTKDSVKEIVLPLFYDLLNAASIESADILCPLLESFITFSLDDWISIGYETELKKITDKTIKAFMDSTIGNSKVDMKYDIFAKFIHHIHHFEKKELQEKFLNQIATLKIHLKKFLQEKMDPNNSRDDYKDLTCSLYELYINKLTILGRDYPIEVDEELLQLFLNNFVSRIPIMFQDFDDSTAQEINFKMLVLLATWNLEKWREIIEKVRDYENSISKDLRSVWKPIAAIIGRLNTLVISLAATNETFENINSLFYLKWSACTSLMDIIVAIKIFELKLPADATTWRYSMSEQFPFYLHDNASKVLLKIFLYLESLFAKQVDVQLERVADEDANLNDLPETGFFENIETEFLLFTVKLKGLMKLNILDERFASRVALNKEKLGPLFKKIVDDTIMENPEPNKKNIQKAKSNQTQREKAPLQPNSERETDHANTENNDPDIPMTIDLEPIEESSQNNSELAPIEEHPTVVDAIDNSDEITQD
With B4, in experiment [2], the binding result is reported as “binds”.
